Experimental data from patent US20180133288A1 (ILDONG PHARM, published 2018).
Results are given in words; binding and its absence hold for the method and conditions named. Some entries that bind do so weakly or less than the wild type. Tags and fused reporters may be left off the sequences shown.

Chains of the proteins cited; added tags and fusions are not shown. Residues count along the entry.
UniProt O14786, residues 273-586: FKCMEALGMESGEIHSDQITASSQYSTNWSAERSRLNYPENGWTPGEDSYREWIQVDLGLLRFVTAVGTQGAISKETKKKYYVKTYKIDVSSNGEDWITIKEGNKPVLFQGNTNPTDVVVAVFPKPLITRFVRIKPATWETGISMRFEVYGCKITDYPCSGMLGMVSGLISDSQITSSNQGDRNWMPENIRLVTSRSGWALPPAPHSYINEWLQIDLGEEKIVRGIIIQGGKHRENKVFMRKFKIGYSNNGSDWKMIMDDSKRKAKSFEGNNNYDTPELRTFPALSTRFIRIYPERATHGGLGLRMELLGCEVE

Key:
[1] = biological target: T1, neuropilin 1 receptor (UniProt O14786 273-586, limits assumed); test: SPR (Biacore 2000), neuropilin 1 fixed on CM5 chip
T1 construct: The construct is not defined; also called NRP1; NRP 1

[2] = biological target: T1, neuropilin 1 receptor; test: SPR (Biacore 2000), neuropilin 1 domain fixed on chip

- binding [1]: binds
- binding [2]: binds
Binder: HTPGNSKPTRTPRR (Fc fusion, not shown: a dimerising Fc or GST; small tags and cut ends) [Fc-TPP#5 (TPP#5-fused Fc)]
